According to PubChem BioAssay AID328 (DTP/NCI, 2004):
The list shows only some results of the screen, not a fair sample: it gathers tests that were run many times, whatever their T/C, doses with no T/C, and many T/C values between a quarter and a half above the control. Further doses and runs are listed elsewhere. T/C gives the treated animals as a percentage of the vehicle group. Some entries give survivors of the animals treated and no T/C: the source files T/C as zero there, which appears to mark a toxic dose or a test without result, not a measured value. Some doses without a T/C left all or most animals alive at the check, yet need not have been tolerated: survival well below the control is almost never listed, so the zero probably covers shortened survival too. Survivors were counted at the toxicity check, usually on the fifth day, unless a day is given; later deaths do not show. Schedule codes are those of the source, read here as Q, the interval in days (D) or hours (H), X, the number of doses. Some entries hold several experiments; the results are listed from low to high. Where survival is the endpoint, the PubChem record calls one and a half times the control and up active, and a quarter to a half above the control has no call in these data; cut-offs in other NCI protocols can differ. Some T/C values carry the count of animals alive at the toxicity check (mostly the fifth day); where none is given, no animal had died by that day. Starred links: 1 amine or outer side, 2 acyl side, 3 side chain; linkers in the order of their positions; H or OH if unused. Positions of bridges follow the written chain, without caps; N, C: chain ends. Non-standard residues stand in square brackets, D forms with d. Residues, ends and D or L forms follow the SMILES beside them. Chains are numbered I, II in the order given. Actinocin(1to9) = Cc1c2oc3c(C)ccc(C(=O)[*:2])c3nc-2c(C(=O)[*:1])c(N)c1=O; NMeV = CN[CH](C(=O)O)C(C)C; Sar = CNCC(=O)O

Tested on: BDF1 mice, P388 leukemia ip, median survival T/C
Test: NCI In Vivo Anticancer Drug Screen. Data for tumor model P388 Leukemia (intraperitoneal) in B6D2F1 (BDF1) mice
Details: T/C endpoint: median survival time, higher T/C = longer survival
Procedure, shortened: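 Transplantable tumour in mice; compound vs vehicle dosing; survival scored; ratio of treated to control reported.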

[1] = dose: 25.0 mg/kg/injection, schedule: Q01DX009 (ip), vehicle: Klucel (hydroxypropylcellulose) (HPC)
[2] = dose: 100.0 mg/kg/injection, schedule: Q01DX009 (ip), vehicle: Klucel (hydroxypropylcellulose) (HPC)
[3] = dose: 400.0 mg/kg/injection, schedule: Q04DX003 (ip), vehicle: Klucel (hydroxypropylcellulose) (HPC)
[4] = dose: 100.0 mg/kg/injection, schedule: Q01DX009 (ip), vehicle: saline
[5] = dose: 200.0 mg/kg/injection, schedule: Q01DX009 (ip), vehicle: Klucel (hydroxypropylcellulose) (HPC)
[6] = dose: 400.0 mg/kg/injection, schedule: Q01DX009 (ip), vehicle: Klucel (hydroxypropylcellulose) (HPC)
[7] = dose: 400.0 mg/kg/injection, schedule: Q01DX001 (ip), vehicle: saline with Tween-80

C[C@]12CCC(=O)C=C1CC[C@@H]1C2=CC[C@@]2(C)[C@H]1CC[C@]2(C)O
survivor count (dose: 6.25 mg/kg/injection, schedule: Q01DX009 (ip), vehicle: Klucel (hydroxypropylcellulose) (HPC)): 6 of 6
survivor count (dose: 12.5 mg/kg/injection, schedule: Q01DX009 (ip), vehicle: Klucel (hydroxypropylcellulose) (HPC)): 6 of 6
survivor count [1]: 6 of 6
survivor count [2]: 6 of 6
survivor count [3]: 3 of 6

O=C(O)CCSSCCC(=O)O
T/C (dose: 50.0 mg/kg/injection, schedule: Q04DX003 (ip), vehicle: Klucel (hydroxypropylcellulose) (HPC)): 125 % of control

Nc1ccc(Nc2ccccc2)c(S(=O)(=O)O)c1
T/C [4]: 133 % of control
T/C (dose: 200.0 mg/kg/injection, schedule: Q01DX009 (ip), vehicle: saline): 142 % of control

Cc1ccc(S(=O)(=O)N(C)SCl)cc1 (tested in a mixture with another compound)
T/C (dose: 50.0 mg/kg/injection, schedule: Q01DX009 (ip), vehicle: other): 125 % of control
T/C (dose: 200.0 mg/kg/injection, schedule: Q01DX009 (ip), vehicle: other): 131 % of control

Oc1ccccc1C1N=NC2=C(CCCC2)N1O (stereo not given)
survivor count [5]: 6 of 6

O=C(O)c1c(-c2ccccc2)[nH]c2cc(Cl)ccc2c1=O
survivor count [1]: 6 of 6
T/C [2]: 127 % of control [5 of 6 alive]
survivor count [5]: 3 of 6
T/C (dose: 200.0 mg/kg/injection, schedule: Q04DX003 (ip), vehicle: saline with Tween-80): 131 % of control
survivor count (dose: 300.0 mg/kg/injection, schedule: Q04DX003 (ip), vehicle: saline with Tween-80): 3 of 6
survivor count [6]: 0 of 6

CCOC(=O)Nc1ccc2c(c1)/C(=N\NC(N)=S)c1ccccc1-2
survivor count (dose: 1.5 mg/kg/injection, schedule: Q04DX003 (ip), vehicle: gum acacia): 6 of 6
survivor count (dose: 3.0 mg/kg/injection, schedule: Q01DX009 (ip), vehicle: gum acacia): 6 of 6
survivor count (dose: 6.0 mg/kg/injection, schedule: Q01DX009 (ip), vehicle: gum acacia): 6 of 6
survivor count (dose: 12.5 mg/kg/injection, schedule: Q04DX003 (ip), vehicle: gum acacia): 6 of 6
survivor count (dose: 25.0 mg/kg/injection, schedule: Q04DX003 (ip), vehicle: gum acacia): 6 of 6
survivor count (dose: 50.0 mg/kg/injection, schedule: Q01DX001 (ip), vehicle: Klucel (hydroxypropylcellulose) (HPC)): 5 of 6
survivor count (dose: 50.0 mg/kg/injection, schedule: Q04DX003 (ip), vehicle: gum acacia): 6 of 6
survivor count (dose: 100.0 mg/kg/injection, schedule: Q01DX001 (ip), vehicle: Klucel (hydroxypropylcellulose) (HPC)): 6 of 6
survivor count (dose: 100.0 mg/kg/injection, schedule: Q04DX003 (ip), vehicle: gum acacia): 6 of 6
survivor count (dose: 200.0 mg/kg/injection, schedule: Q04DX003 (ip), vehicle: gum acacia): 6 of 6
survivor count [6]: 6 of 6

N#C/C(=C\c1ccc(O)cc1)c1ccc([N+](=O)[O-])cc1
survivor count (dose: 200.0 mg/kg/injection, schedule: Q01DX001 (ip), vehicle: saline with Tween-80): 1 of 6
survivor count [7]: 0 of 6

CC(O)c1nc(N)nc(N)c1-c1ccc(Cl)cc1 (stereo not given)
survivor count [7]: 3 of 6

NC(=O)OCc1c(O)c2c(c(O)c1COC(N)=O)C(=O)C=CC2=O
survivor count (dose: 100.0 mg/kg/injection, schedule: Q01DX009 (ip), vehicle: water): 6 of 6
survivor count (dose: 200.0 mg/kg/injection, schedule: Q01DX009 (ip), vehicle: water): 5 of 6
survivor count (dose: 400.0 mg/kg/injection, schedule: Q01DX009 (ip), vehicle: water): 3 of 6

CC1CC[N-]CC1.CC1CC[N-]CC1.CC1CC[N-]CC1.CC1CC[N-]CC1.O=C([O-])C(=O)[O-].O=C([O-])C(=O)[O-].[Nb+5].[O-][O-].[O-][O-].[Pt+4]
survivor count (dose: 6.25 mg/kg/injection, schedule: Q01DX009 (ip), vehicle: saline): 0 of 6

O=C(O)/C=C/c1c[nH]c(=O)[nH]c1=O
survivor count (dose: 200.0 mg/kg/injection, schedule: Q04DX003 (ip), vehicle: Klucel (hydroxypropylcellulose) (HPC)): 6 of 6
survivor count [3]: 0 of 6

COc1cccc2c1C(=O)c1c(O)c3c(c(O)c1C2=O)CC(O)(C(=O)CO)CC3OC1CC(N)C(O)C(C)O1 (stereo not given) (tested in a mixture with another compound)
T/C (dose: 25.0 mg/kg/injection, schedule: Q01DX009 (ip), vehicle: other): 127 % of control

COc1ccc(C2c3cc4c(c(OC)c3CC3OCC(=O)C32)OCO4)cc1OC (stereo not given)
T/C (dose: 50.0 mg/kg/injection, schedule: Q01DX001 (ip), vehicle: other): 126 % of control
T/C (dose: 50.0 mg/kg/injection, schedule: Q01DX010 (ip), vehicle: other): 136 % of control
T/C (dose: 100.0 mg/kg/injection, schedule: Q01DX001 (ip), vehicle: other): 131 % of control
survivor count (dose: 358.0 mg/kg/injection, schedule: Q01DX010 (ip), vehicle: saline): 5 of 6

N#CC1(c2ccc(Cl)cc2)CC1
survivor count [6]: 4 of 6
survivor count [3]: 6 of 6

COc1cc2cc(c1Cl)N(C)C(=O)C[C@H](OC(=O)CBr)[C@]1(C)O[C@@H]1[C@H](C)[C@@H]1C[C@@](O)(NC(=O)O1)[C@H](OC)C=C/C=C(\C)C2
T/C (dose: 0.9 micrograms/kg/injection, schedule: Q01DX009 (ip), vehicle: saline + alcohol): 129 % of control
T/C (dose: 1.8 micrograms/kg/injection, schedule: Q01DX009 (ip), vehicle: saline + alcohol): 131 % of control
T/C (dose: 3.1 micrograms/kg/injection, schedule: Q01DX009 (ip), vehicle: saline + alcohol): 130 % of control
T/C (dose: 6.2 micrograms/kg/injection, schedule: Q01DX009 (ip), vehicle: saline + alcohol): 146 % of control
survivor count (dose: 200.0 micrograms/kg/injection, schedule: Q01DX009 (ip), vehicle: saline + alcohol): 4 of 4

Nc1nc(Cc2ccccc2)c(CCCNc2ccccc2)c(=O)[nH]1
survivor count (dose: 12.5 mg/kg/injection, schedule: Q01DX009 (ip), vehicle: saline with Tween-80): 6 of 6

CCC(C)C1NC(=O)C(NC(=O)c2c3nc4c(C(=O)NC5C(=O)NC(C(C)CC)C(=O)N6CCCC6C(=O)N(C)CC(=O)N(C)C(C(C)C)C(=O)OC5C)ccc(C)c4oc-3c(C)c(=O)c2N)C(C)OC(=O)C(C(C)C)N(C)C(=O)CN(C)C(=O)C2CCCN2C1=O (stereo not given) (I: TIP[Sar][NMeV] / II: TIP[Sar][NMeV]; ester I:1-I:C, II:1-II:C; linker I:N-II:N via Actinocin(1to9); configuration not given here)
survivor count (dose: 0.2 mg/kg/injection, schedule: Q01DX010 (ip), vehicle: saline): 6 of 6
survivor count (dose: 0.4 mg/kg/injection, schedule: Q01DX010 (ip), vehicle: saline): 6 of 6
T/C (dose: 12.5 micrograms/kg/injection, schedule: Q04DX003 (ip), vehicle: saline): 140 % of control
T/C (dose: 50.0 micrograms/kg/injection, schedule: Q01DX001 (ip), vehicle: saline): 140 % of control
T/C (dose: 100.0 micrograms/kg/injection, schedule: Q01DX001 (ip), vehicle: saline): 136 % of control
survivor count (dose: 400.0 micrograms/kg/injection, schedule: Q01DX010 (ip), vehicle: saline): 6 of 6

CC(=O)SCCNCCNC1CC2CCC1C2 (stereo not given)
survivor count (dose: 23.0 mg/kg/injection, schedule: Q01DX009 (ip), vehicle: saline): 5 of 6

CSc1ncc2n1C=CN(C(=O)c1ccc([N+](=O)[O-])cc1)C2O (stereo not given)
survivor count [4]: 4 of 6

COc1ccccc1NC(=O)CSC(N)=O
T/C [6]: 130 % of control
survivor count [6]: 3 of 6 and 6 of 6
